Results: patent US20150136233A1, “ORGANIC PHOTOVOLTAIC DEVICES COMPRISING FULLERENES AND DERIVATIVES” (The Regents of the University of California, priority 2013, published 2015)

Legend:
[1] = Bulk heterojunction solar cell device, P3HT as donor, J-V at 1 sun (AM 1.5G); conditions: Table 5, single or mixed pristine and mono-fullerene acceptor
[2] = Bulk heterojunction solar cell device, PCDT-2FBT as donor, J-V at 1 sun (AM 1.5G); conditions: Table 4, PCDT-2FBT donor, single or mixed mono and bis-fullerene acceptor

COC(=O)CCCC1(c2ccccc2)C23c4c5c6c7c8c9c(c%10c%11c2c2c%12c4c4c%13c5c5c7c7c8c8c%14c9c%10c9c%10c%11c2c2c%11c%12c4c4c%12c%13c5c5c7c7c8c8c%14c9c9c%10c2c2c%11c4c4c%12c5c7c5c8c9c2c45)C613 (centres unmarked) [PC61BM, [6,6]-phenyl C61-butyric acid methyl ester]
Jsc [1]: 9.74 ± 0.26 mA/cm^2 | Voc [1]: 0.62 ± 0.004 V | ff [1]: 0.67 ± 0.01 | η (power conversion efficiency) [1]: 4.04 ± 0.16% | Ff [2]: 0.47 ± 0.003 | Voc [2]: 0.58 ± 0.001 V | Jsc ([2]; listed as PCBM): 4.64 mA/cm^2 and 4.64 ± 0.12 mA/cm^2 | η (power conversion efficiency) ([2]; listed as PCBM): 1.27% and 1.27 ± 0.03%

Several values for one entry are separate records, joined by “and”; a condition that tells them apart may be missing. Identical values can stand only once.
